From PMC5998066 come the findings set out here.

Protein sequences, listed by entry. Tags and fused reporters are not part of them.
UniProt Q9UNN5: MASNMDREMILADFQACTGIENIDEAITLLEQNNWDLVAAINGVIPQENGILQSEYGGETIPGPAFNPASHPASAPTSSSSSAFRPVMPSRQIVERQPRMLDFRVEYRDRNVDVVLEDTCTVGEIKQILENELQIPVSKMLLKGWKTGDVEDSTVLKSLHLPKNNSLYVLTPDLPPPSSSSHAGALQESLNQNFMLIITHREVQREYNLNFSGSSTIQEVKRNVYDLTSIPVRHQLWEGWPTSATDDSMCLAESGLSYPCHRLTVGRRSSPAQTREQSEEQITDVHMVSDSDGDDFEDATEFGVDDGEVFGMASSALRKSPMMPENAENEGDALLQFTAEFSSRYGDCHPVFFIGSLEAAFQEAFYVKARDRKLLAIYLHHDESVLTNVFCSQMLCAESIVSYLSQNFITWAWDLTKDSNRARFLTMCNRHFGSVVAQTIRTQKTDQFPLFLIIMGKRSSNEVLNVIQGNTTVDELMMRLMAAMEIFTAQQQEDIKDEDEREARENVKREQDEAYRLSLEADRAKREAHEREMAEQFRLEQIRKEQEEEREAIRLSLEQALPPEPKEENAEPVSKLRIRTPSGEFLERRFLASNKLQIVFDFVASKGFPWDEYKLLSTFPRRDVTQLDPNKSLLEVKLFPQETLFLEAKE
UniProt Q86WV6: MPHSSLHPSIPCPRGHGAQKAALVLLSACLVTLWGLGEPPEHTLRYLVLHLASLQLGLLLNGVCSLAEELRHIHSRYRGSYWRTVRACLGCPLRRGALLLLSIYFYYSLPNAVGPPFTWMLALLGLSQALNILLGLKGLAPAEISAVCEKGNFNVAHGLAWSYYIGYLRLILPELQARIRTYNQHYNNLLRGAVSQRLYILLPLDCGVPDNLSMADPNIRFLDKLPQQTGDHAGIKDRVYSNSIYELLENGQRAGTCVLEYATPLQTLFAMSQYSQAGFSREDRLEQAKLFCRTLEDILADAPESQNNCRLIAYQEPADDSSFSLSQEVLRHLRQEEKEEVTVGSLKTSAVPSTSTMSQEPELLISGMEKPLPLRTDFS

These are yes or no findings as the source states them, for the method shown. In cells and extracts the contact can be indirect. Some binding calls cover weakened binding; strength is not graded here. For some assays here: Where a sequence is shown, tags or fusion partners need not be part of it.

The target of assay [1] is T1, FLAG-UBXN3B (human) (UniProt Q96CS3).
T1 sequence: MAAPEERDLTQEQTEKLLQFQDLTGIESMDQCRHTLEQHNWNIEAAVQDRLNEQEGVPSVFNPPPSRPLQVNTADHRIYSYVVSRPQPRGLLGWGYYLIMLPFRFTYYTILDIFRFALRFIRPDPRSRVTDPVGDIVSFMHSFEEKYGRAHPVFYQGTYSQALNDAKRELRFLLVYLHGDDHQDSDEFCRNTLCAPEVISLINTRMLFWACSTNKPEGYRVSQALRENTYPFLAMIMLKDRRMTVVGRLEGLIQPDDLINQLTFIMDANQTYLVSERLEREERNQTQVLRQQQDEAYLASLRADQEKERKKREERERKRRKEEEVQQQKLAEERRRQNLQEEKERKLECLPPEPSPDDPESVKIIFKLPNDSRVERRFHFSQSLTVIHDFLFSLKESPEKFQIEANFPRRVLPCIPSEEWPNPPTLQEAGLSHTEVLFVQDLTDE
The assay is described as follows: co-IP; HEK293T cells co-transfected with FLAG-UBXNs and HA-STING; whole-cell extracts in 150 mM NaCl, 50 mM Tris pH 7.5, 1 mM EDTA, 0.5% NP40, 10% glycerol; anti-FLAG magnetic beads 2 h at 4 °C; immunoblot anti-HA and anti-FLAG. For orientation: A western blot detects proteins with antibodies after separation by electrophoresis.

Assay [2] has as its target FLAG-UBXN3A (UniProt Q9UNN5). The assay is described as above.

With HA-STING (from UniProt Q86WV6 1-379), the binding entry in assay [1] is recorded as “binds”; in assay [2], “no binding”.
